Reference: US20220372138A1
Results are given in words; binding and its absence hold for the method and conditions named. Some entries that bind do so weakly or less than the wild type.

By UniProt entry, the sequences of proteins in these tests, tags left out. Where a name states a change or a piece, a line headed by the entry shows the natural chain unless it says otherwise.
UniProt Q5DX21: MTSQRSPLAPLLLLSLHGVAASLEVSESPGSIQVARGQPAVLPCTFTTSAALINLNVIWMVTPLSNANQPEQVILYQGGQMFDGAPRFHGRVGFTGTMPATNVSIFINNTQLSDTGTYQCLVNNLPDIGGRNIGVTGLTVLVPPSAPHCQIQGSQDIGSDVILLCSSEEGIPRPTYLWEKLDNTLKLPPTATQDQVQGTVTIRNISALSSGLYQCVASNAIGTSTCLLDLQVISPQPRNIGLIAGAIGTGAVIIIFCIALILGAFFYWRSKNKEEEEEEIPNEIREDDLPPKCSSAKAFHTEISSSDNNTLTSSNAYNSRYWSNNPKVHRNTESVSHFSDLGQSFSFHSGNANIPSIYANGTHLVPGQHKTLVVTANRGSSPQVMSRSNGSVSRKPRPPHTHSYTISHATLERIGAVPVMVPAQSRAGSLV

Key:
[1] = target: human IGSF11 (VSIG3) ECD, His-tagged (human) (UniProt Q5DX21); assay: ELISA: IGSF11-HIS coated, IgG1 dilution series, anti-human antibody-HRP, TMB
[2] = target: human IGSF11 (VSIG3) ECD, His-tagged (human) (UniProt Q5DX21); assay: blocking ELISA: VSIR-Fc immobilised, IgG dilution series pre-incubated with 200 nM IGSF11 ECD-His, bound IGSF11 detected with anti-His-HRP
[3] = target: human IGSF11 (VSIG3) ECD, His-tagged (human) (UniProt Q5DX21); assay: IgG1 ELISA EC50 <0.02 nM

Measured: binding

B1: B-002 (chain-swapped IgG1) (antibody, V domains shown)
VH: EVQLVESGGGLIQPGGSLRLSCAASGFTVSSNYMSWVRQAPGKGLEWVSVIYSGGSTYYADSVKGRFTISRDNSKNTLYLQMNSLRAEDTAVYYCARGNPYYYGDLQVNFDYWGQGTLVTVSS
VL: QAVVTQEPSLTVSPGGTVTLTCASSTGAVTSGYYPNWFQQKPGQAPRALIYSTSNKHSWTPARFSGSLLGGKAALTLSGVQPEDEAEYYCLLYYGGAWVFGGGTKLTVL
binds: all assays above

B2: B-006 (chain-swapped IgG1) (antibody, V domains shown)
VH: EVQLVESGGGLIQPGGSLRLSCAASGFTVSSNYMSWVRQAPGKGLEWVSVIYSGGSTYYADSVKGRFTISRDNSKNTLYLQMNSLRAEDTAVYYCARGNPYYYGDLQVNFDYWGQGTLVTVSS
VL: QAVVTQEPSLTVSPGETVTLTCASSTGAVTSGYYPNWFQQRPGQAPRALIYSTSNKDSWTPARFSGSLLGGKAALTLSGVQPEDEAEYYCLLYYGGAWVFGGGTKLTVL
binds: all assays above

B3: B-007 (chain-swapped IgG1) (antibody, V domains shown)
VH: EVQLVESGGGLIQPGGSLRLSCAASGFTVSSNYMSWVRQAPGKGLEWVSVIYSGGSTYYADSVKGRFTISRDNSKNTLYLQMNSLRAEDTAVYYCARGNPYYYGDLQVNFDYWGQGTLVTVSS
VL: QAVVTQEPSLTVSPGGTVTLTCASSTGAVTSAYYPNWFQQKPGQAPRALIYSTSNKHSWTPARFSGSLLGGKAALTLSGVQPEDEADYYCLLYYGGAWVFGGGTKLTVL
binds: all assays above

B4: B-003 (chain-swapped IgG1) (antibody, V domains shown)
VH: EVQLLESGGGLIQPGGSLRLSCAVSGFTVSSNYMSWVRQAPGKGLEWVSVIYSGGSTYYADSVKGRFTISRDNSKNTLYLQMNSLRAEDTAVYYCARGNPYYYGDLQVNFDYWGQGTLVTVSS
VL: QAVVTQEPSLTVSPGETVTLTCASSTGAVTSGYYPNWFQQRPGQAPRALIYSTSNKDSWTPARFSGSLLGGKAALTLSGVQPEDEAEYYCLLYYGGAWVFGGGTKLTVL
binds: all assays above

B5: B-005 (chain-swapped IgG1) (antibody, V domains shown)
VH: EVQLLESGGGLIQPGGSLRLSCAVSGFTVSSNYMSWVRQAPGKGLEWVSVIYSGGSTYYADSVKGRFTISRDNSKNTLYLQMNSLRAEDTAVYYCARGNPYYYGDLQVNFDYWGQGTLVTVSS
VL: QAVVTQEPSLTVSPGGTVTPTCGSSTGAVTSGNLPNWFQQKPGQAPRALIYSTSNKHSWTPARISGSLLGGKAALTLSGVQPEDEAEYYCLLYYGGAWVFGGGTKLTVL
binds: all assays above

B6: B-004 (chain-swapped IgG1) (antibody, V domains shown)
VH: EVQLLESGGGLIQPGGSLRLSCAVSGFTVSSNYMSWVRQAPGKGLEWVSVIYSGGSTYYADSVKGRFTISRDNSKNTLYLQMNSLRAEDTAVYYCARGNPYYYGDLQVNFDYWGQGTLVTVSS
VL: QAVVTQEPSLTVSPGGTVTLTCASSTGAVTSGYYPNWFQQKPGQAPRPLIYSTSNKHSWTPARFSGSLLGGKAALTLSGVQPDDEAEYYCLLYYGGDWVFGGGTKLTVL
binds: all assays above

B7: B-008 (chain-swapped IgG1) (antibody, V domains shown)
VH: EVQLVESGGGLIQPGGSLRLSCAASGFTVSSNYMSWVRQAPGKGLEWVSVIYSGGSTYYADSVKGRFTISRDNSKNTLYLQMNSLRAEDTAVYYCARGNPYYYGDLQVNFDYWGQGTLVTVSS
VL: QAVVTQEPSLTVSPGGTVTPTCGSSTGAVTSGNLPNWFQQKPGQAPRALIYSTSNKHSWTPARISGSLLGGKAALTLSGVQPEDEAEYYCLLYYGGAWVFGGGTKLTVL
binds: all assays above
